Assay results: article PMC12262889
No constants are given. Whether binding was seen depends on the method and setting. Binding seen in cells or lysates may run through a third protein. These calls come from enrichment with a bait or labelling near it, and not all partners need be listed. Tags and fused reporters may be left off the sequences shown.

Protein sequences, listed by entry. Tags and fused reporters are not part of them.
UniProt P38431: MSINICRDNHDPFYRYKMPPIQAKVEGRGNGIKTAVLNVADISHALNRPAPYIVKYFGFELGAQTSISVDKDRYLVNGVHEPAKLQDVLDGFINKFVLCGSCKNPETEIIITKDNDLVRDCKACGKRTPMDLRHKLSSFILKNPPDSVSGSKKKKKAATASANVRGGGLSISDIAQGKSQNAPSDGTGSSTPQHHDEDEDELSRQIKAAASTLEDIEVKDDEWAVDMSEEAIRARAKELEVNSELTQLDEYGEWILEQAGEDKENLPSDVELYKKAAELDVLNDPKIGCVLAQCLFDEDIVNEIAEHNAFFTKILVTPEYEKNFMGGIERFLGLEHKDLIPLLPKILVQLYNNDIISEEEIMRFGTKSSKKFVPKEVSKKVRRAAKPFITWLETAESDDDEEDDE

T1: Clu1-GFP-BirA* (S. cerevisiae) (UniProt Q03690)
T1 sequence: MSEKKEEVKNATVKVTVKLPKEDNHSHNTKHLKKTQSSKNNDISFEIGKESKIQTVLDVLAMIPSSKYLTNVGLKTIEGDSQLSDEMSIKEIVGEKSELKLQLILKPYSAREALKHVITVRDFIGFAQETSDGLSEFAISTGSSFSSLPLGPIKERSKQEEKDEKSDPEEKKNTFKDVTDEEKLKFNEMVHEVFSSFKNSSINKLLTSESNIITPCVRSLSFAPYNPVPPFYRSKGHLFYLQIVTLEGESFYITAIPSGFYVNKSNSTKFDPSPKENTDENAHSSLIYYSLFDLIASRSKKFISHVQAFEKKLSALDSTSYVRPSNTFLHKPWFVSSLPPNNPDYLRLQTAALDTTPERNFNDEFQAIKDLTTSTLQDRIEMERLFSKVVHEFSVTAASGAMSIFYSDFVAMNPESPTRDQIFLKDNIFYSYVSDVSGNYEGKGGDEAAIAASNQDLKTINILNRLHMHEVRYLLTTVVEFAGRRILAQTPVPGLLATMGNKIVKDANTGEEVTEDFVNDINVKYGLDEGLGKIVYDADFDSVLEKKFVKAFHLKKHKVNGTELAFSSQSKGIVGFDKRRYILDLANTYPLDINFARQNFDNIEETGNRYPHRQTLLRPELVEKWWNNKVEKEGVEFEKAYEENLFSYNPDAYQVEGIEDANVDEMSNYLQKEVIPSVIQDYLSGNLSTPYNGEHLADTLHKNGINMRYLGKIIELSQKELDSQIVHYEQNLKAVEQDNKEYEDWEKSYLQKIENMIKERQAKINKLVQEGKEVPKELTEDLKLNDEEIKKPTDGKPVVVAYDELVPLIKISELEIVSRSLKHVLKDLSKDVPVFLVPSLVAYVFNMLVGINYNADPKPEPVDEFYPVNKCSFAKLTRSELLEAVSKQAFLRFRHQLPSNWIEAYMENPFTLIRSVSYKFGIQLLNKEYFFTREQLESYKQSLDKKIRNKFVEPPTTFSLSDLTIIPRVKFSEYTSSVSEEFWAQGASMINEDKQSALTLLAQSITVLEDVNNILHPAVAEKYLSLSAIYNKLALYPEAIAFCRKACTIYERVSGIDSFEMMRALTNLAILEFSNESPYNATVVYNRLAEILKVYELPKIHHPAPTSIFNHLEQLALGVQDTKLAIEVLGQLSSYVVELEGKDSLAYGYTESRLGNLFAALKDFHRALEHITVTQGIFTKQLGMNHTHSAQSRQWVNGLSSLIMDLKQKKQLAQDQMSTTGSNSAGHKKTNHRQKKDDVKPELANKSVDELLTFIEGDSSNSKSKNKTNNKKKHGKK


Target: T1, Clu1-GFP-BirA* (S. cerevisiae)
Experiment: proximity labelling; BioID: knock-in Clu1-GFP-BirA* strain against a strain expressing cytosolic BirA*; 50 uM biotin for 16 h, log phase and PD phase; streptavidin agarose purification in 8 M urea, 1% SDS; LC-MS/MS, label-free quantification

Molecule | binding
Ald5 (protein, UniProt P40047 24-520) SQAPLRVPITLPNGFTYEQPTGLFINGEFVASKQKKTFDVINPSNEEKITTVYKAMEDDVDEAVAAAKKAFETKWSIVEPEVRAKALFNLADLVEKHQETLAAIESMDNGKSLFCARGDVALVSKYLRSCGGWADKIYGNVIDTGKNHFTYSIKEPLGVCGQIIPWNFPLLMWSWKIGPALATGNTVVLKPAETTPLSALFASQLCQEAGIPAGVVNILPGSGRVVGERLSAHPDVKKIAFTGSTATGRHIMKVAADTVKKVTLELGGKSPNIVFADADLDKAVKNIAFGIFYNSGEVCCAGSRIYIQDTVYEEVLQKLKDYTESLKVGDPFDEEVFQGAQTSDKQLHKILDYVDVAKSEGARLVTGGARHGSKGYFVKPTVFADVKEDMRIVKEEVFGPIVTVSKFSTVDEVIAMANDSQYGLAAGIHTNDINKAVDVSKRVKAGTVWINTYNNFHQNVPFGGFGQSGIGREMGEAALSNYTQTKSVRIAIDKPIR | binds
Ald4 (protein, UniProt P46367 25-519) SHLPMTVPIKLPNGLEYEQPTGLFINNKFVPSKQNKTFEVINPSTEEEICHIYEGREDDVEEAVQAADRAFSNGSWNGIDPIDRGKALYRLAELIEQDKDVIASIETLDNGKAISSSRGDVDLVINYLKSSAGFADKIDGRMIDTGRTHFSYTKRQPLGVCGQIIPWNFPLLMWAWKIAPALVTGNTVVLKTAESTPLSALYVSKYIPQAGIPPGVINIVSGFGKIVGEAITNHPKIKKVAFTGSTATGRHIYQSAAAGLKKVTLELGGKSPNIVFADAELKKAVQNIILGIYYNSGEVCCAGSRVYVEESIYDKFIEEFKAASESIKVGDPFDESTFQGAQTSQMQLNKILKYVDIGKNEGATLITGGERLGSKGYFIKPTVFGDVKEDMRIVKEEIFGPVVTVTKFKSADEVINMANDSEYGLAAGIHTSNINTALKVADRVNAGTVWINTYNDFHHAVPFGGFNASGLGREMSVDALQNYLQVKAVRAKLDE | binds
RpL20a (protein, UniProt P0CX23 1-172) MAHFKEYQVIGRRLPTESVPEPKLFRMRIFASNEVIAKSRYWYFLQKLHKVKKASGEIVSINQINEAHPTKVKNFGVWVRYDSRSGTHNMYKEIRDVSRVAAVETLYQDMAARHRARFRSIHILKVAEIEKTADVKRQYVKQFLTKDLKFPLPHRVQKSTKTFSYKRPSTFY | binds
Aco1 (protein, UniProt P19414 17-778) ATVSNLTRDSKVNQNLLEDHSFINYKQNVETLDIVRKRLNRPFTYAEKILYGHLDDPHGQDIQRGVSYLKLRPDRVACQDATAQMAILQFMSAGLPQVAKPVTVHCDHLIQAQVGGEKDLKRAIDLNKEVYDFLASATAKYNMGFWKPGSGIIHQIVLENYAFPGALIIGTDSHTPNAGGLGQLAIGVGGADAVDVMAGRPWELKAPKILGVKLTGKMNGWTSPKDIILKLAGITTVKGGTGKIVEYFGDGVDTFSATGMGTICNMGAEIGATTSVFPFNKSMIEYLEATGRGKIADFAKLYHKDLLSADKDAEYDEVVEIDLNTLEPYINGPFTPDLATPVSKMKEVAVANNWPLDVRVGLIGSCTNSSYEDMSRSASIVKDAAAHGLKSKTIFTVTPGSEQIRATIERDGQLETFKEFGGIVLANACGPCIGQWDRRDIKKGDKNTIVSSYNRNFTSRNDGNPQTHAFVASPELVTAFAIAGDLRFNPLTDKLKDKDGNEFMLKPPHGDGLPQRGYDAGENTYQAPPADRSTVEVKVSPTSDRLQLLKPFKPWDGKDAKDMPILIKAVGKTTTDHISMAGPWLKYRGHLENISNNYMIGAINAENKKANCVKNVYTGEYKGVPDTARDYRDQGIKWVVIGDENFGEGSSREHAALEPRFLGGFAIITKSFARIHETNLKKQGLLPLNFKNPADYDKINPDDRIDILGLAELAPGKPVTMRVHPKNGKPWDAVLTHTFNDEQIEWFKYGSALNKIKADEKK | binds

Further lines, results first:

binding | Molecule
binds | translation initiation factor eIF5 (Tif5) (from UniProt P38431 1-405)
binds | Scp160 (protein, UniProt P06105 1-1222) MSEEQTAIDSPPSTVEGSVETVTTIDSPSTTASTIAATAEEHPQLEKKPTPLPSLKDLPSLGSNAAFANVKVSWGPNMKPAVSNSPSPSPSAPSLTTGLGAKRMRSKNIQEAFTLDLQSQLSITKPELSRIVQSVKKNHDVSVESTLSKNARTFLVSGVAANVHEAKRELVKKLTKPINAVIEVPSKCKASIIGSGGRTIREISDAYEVKINVSKEVNENSYDEDMDDTTSNVSLFGDFESVNLAKAKILAIVKEETKNATIKLVVEDEKYLPYIDVSEFASDEGDEEVKVQFYKKSGDIVILGPREKAKATKTSIQDYLKKLASNLDEEKVKIPSKFQFLIDAEELKEKYNVIVTFPSTPDDELVSFVGLRDKVGEAITYARSSSKSYVVESLDISKAHSKNLTHAKNLIMYFTKYSVLKGLEESHPNVKISLPSIQSLPTAETVTIHISAKSDEANDIKAVRKELISFVNNIPPSETLVITDLDYELFGGSIKHCLLASESSVAFVQFGDYYPNDNSILLVALTEDEDFKPSIEEIQASLNKANESLNSLRTKQNNMETKTYEFSEEVQDSLFKPSSATWKLIMEDISEQEGHLQIKLHTPEENQLTVRGDEKAAKAANKIFESILNSPSSKSKMTVNIPANSVARLIGNKGSNLQQIREKFACQIDIPNEENNNASKDKTVEVTLTGLEYNLTHAKKYLAAEAKKWADIITKELIVPVKFHGSLIGPHGTYRNRLQEKYNVFINFPRDNEIVTIRGPSRGVNKAHEELKALLDFEMENGHKMVINVPAEHVPRIIGKNGDNINDIRAEYGVEMDFLQKSTDPKAQETGEVELEITGSRQNIKDAAKRVESIVAEASDFVTEVLKIDHKYHKSIVGSGGHILREIISKAGGEEIRNKSVDIPNADSENKDITVQGPQKFVKKVVEEINKIVKDAENSVTKTIDIPAERKGALIGPGGIVRRQLESEFNINLFVPNKDDPSGKITITGAPENVEKAEKKILNEIIRENFDREVDVPASIYEYVSERGAFIQKLRMDLSVNVRFGNTSKKANKLARAPIEIPLEKVCGSTEGENAEKTKFTIEEVGAPTSSEEGDITMRLTYEPIDLSSILSDGEEKEVTKDTSNDSAKKEEALDTAVKLIKERIAKAPSATYAGYVWGADTRRFNMIVGPGGSNIKKIREAADVIINVPRKSDKVNDVVYIRGTKAGVEKAGEMVLKSLRR
binds | Rpl17b (protein, UniProt P46990 1-184) MARYGATSTNPAKSASARGSYLRVSFKNTRETAQAINGWELTKAQKYLDQVLDHQRAIPFRRFNSSIGRTAQGKEFGVTKARWPAKSVKFVQGLLQNAAANAEAKGLDATKLYVSHIQVNQAPKQRRRTYRAHGRINKYESSPSHIELVVTEKEEAVAKAAEKKVVRLTSRQRGRIAAQKRISA
binds | Ses1 (protein, UniProt P07284 1-462) MLDINQFIEDKGGNPELIRQSQKARNASVEIVDEIISDYKDWVKTRFELDELNKKFNKLQKDIGLKFKNKEDASGLLAEKEKLTQQKKELTEKEQQEDKDLKKKVFQVGNIVHPSVVVSNDEENNELVRTWKPEDLEAVGPIASVTGKPASLSHHEILLRLDGYDPDRGVKICGHRGYFFRNYGVFLNQALINYGLQFLAAKGYIPLQAPVMMNKELMSKTAQLSEFDEELYKVIDGEDEKYLIATSEQPISAYHSGEWFEKPQEQLPIHYVGYSSCFRREAGSHGKDAWGVFRVHAFEKIEQFVITEPEKSWEEFEKMISYSEEFYKSLKLPYRIVGIVSGELNNAAAKKYDLEAWFPYQKEYKELVSCSNCTDYQSRNLEIRCGIKKMGDREKKYVHCLNSTLAATQRALCCILENYQTEDGLVVPEVLRKYIPGEPEFLPFVNELPKNSTSSKDKKKKN
binds | translation initiation factor eIF-4B (Tif3) (protein, UniProt P34167 1-436) MAPPKKTVKKMDLTSFLNDDTFGSSWAEEDVDLNKITIPIETANANTIPLSELAHAKNNSNNTRSGGFGGSFGGRSRLDPALGGGSSDRREEYPVPDAPPYRAVINNIPWDITPEGVQAWVEDGLVKPEAVEEVVLPKNLRDPTRLKGNAFVTLKERADLVAVLKFNGTKLNERTVYVSVAAPRRGGGADVDWSSARGSNFQGDGREDAPDLDWGAARGSNFRGPRREREEVDIDWTAARGSNFQGSSRPPRREREEVDIDWSAARGSNFQGSSRPPRREREEPDIDWSAARGSNFQSSSRPPRREREEPDIDWSAARGSNFQSSSRPPRREREKEEPALDWGAARGAQFGKPQQTKNTYKDRSLTNKKTTDEQPKIQKSVYDVLRTEDDDEDEEAEKQNGDAKENKVDAAVEKLQDKTAQLTVEDGDNWEVVGKK
